# From the supplement of paper PMC7666118
# Sequences of proteins named here, by UniProt entry; tags and fusion partners are left off. A change or cut given only in a name is not applied to a line headed by its entry.
# UniProt Q96SU4: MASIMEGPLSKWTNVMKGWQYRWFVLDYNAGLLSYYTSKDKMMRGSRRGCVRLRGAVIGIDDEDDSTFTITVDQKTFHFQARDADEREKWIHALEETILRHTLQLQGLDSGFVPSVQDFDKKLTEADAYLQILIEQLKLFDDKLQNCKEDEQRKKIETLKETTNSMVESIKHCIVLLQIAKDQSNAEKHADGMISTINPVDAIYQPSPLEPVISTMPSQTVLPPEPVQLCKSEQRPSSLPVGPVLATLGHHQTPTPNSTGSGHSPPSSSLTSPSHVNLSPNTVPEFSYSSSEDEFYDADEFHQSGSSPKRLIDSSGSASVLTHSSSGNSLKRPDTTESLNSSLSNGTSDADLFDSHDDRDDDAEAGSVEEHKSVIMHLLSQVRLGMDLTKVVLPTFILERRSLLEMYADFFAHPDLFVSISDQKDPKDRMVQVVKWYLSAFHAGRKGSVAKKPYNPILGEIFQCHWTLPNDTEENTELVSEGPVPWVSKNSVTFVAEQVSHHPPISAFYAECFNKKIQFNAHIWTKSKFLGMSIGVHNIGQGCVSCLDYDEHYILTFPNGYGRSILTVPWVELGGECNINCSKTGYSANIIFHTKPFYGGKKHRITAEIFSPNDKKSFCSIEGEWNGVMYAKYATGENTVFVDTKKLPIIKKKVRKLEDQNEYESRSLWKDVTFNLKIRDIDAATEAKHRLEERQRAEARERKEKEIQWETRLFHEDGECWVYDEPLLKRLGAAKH
# UniProt Q15118, whole entry, looked up: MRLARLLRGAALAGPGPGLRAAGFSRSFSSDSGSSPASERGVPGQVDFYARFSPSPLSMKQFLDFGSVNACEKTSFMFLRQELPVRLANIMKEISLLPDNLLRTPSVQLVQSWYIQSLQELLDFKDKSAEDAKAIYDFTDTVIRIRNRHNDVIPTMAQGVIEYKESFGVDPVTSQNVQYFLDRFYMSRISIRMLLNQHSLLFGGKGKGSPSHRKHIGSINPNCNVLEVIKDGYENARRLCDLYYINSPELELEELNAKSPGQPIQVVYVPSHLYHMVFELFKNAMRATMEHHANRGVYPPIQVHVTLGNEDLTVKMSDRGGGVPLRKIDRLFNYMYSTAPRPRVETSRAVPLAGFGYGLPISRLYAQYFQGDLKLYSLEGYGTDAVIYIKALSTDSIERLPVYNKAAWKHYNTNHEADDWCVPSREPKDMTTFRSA
# UniProt O43482, whole entry: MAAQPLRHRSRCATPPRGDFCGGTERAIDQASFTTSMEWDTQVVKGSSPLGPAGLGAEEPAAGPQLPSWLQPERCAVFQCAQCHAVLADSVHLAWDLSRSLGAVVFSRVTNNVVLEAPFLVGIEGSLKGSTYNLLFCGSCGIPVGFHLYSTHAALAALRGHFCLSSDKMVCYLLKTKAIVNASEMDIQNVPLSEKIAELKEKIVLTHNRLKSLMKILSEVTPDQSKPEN
# UniProt Q29RF7: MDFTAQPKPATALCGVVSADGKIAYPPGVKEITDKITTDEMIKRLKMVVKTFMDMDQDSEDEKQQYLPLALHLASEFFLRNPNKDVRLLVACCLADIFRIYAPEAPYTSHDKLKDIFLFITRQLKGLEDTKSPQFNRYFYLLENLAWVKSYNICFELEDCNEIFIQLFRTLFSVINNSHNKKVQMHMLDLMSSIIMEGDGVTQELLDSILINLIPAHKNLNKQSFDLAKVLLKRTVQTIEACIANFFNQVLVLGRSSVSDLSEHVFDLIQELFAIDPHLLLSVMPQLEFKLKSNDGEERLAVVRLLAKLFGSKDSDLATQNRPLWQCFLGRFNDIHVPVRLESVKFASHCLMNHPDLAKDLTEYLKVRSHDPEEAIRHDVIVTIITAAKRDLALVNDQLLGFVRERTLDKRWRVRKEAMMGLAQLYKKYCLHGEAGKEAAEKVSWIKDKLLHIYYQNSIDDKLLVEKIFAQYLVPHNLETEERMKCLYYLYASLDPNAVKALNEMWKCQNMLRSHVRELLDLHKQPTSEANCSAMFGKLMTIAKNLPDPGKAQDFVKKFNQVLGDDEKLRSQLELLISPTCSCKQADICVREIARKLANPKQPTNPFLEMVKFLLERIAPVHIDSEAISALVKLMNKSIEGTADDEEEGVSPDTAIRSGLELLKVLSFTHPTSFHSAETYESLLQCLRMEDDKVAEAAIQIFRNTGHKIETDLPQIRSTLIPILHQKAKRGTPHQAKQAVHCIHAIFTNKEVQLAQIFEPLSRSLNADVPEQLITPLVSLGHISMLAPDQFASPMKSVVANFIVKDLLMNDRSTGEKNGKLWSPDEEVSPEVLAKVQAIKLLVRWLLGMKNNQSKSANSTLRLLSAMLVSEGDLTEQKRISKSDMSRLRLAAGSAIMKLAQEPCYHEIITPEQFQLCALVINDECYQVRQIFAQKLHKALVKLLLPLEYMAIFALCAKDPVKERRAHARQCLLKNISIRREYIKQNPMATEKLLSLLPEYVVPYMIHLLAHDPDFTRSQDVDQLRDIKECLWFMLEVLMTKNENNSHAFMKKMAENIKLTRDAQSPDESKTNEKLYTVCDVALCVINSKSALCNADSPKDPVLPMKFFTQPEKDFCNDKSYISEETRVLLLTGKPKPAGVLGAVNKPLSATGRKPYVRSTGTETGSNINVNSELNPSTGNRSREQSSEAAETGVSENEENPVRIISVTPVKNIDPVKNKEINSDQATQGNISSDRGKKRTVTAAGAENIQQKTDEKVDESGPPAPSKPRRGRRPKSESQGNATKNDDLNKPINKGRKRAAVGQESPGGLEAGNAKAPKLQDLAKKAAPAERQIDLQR
# UniProt O95394: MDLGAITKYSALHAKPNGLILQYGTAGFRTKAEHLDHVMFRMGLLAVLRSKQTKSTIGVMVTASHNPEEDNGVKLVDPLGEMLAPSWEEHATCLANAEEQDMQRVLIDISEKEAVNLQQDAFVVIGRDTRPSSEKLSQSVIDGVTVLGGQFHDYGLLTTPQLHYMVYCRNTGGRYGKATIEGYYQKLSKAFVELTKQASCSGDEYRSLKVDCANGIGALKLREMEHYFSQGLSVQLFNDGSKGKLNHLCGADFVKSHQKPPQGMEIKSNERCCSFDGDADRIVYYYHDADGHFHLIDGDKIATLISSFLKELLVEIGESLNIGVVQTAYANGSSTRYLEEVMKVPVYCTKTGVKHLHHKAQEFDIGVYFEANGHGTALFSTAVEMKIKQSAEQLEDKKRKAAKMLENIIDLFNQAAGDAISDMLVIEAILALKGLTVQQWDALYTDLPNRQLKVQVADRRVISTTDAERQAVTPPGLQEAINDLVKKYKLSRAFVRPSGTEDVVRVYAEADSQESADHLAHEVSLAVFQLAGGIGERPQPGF
# UniProt Q15365, whole entry: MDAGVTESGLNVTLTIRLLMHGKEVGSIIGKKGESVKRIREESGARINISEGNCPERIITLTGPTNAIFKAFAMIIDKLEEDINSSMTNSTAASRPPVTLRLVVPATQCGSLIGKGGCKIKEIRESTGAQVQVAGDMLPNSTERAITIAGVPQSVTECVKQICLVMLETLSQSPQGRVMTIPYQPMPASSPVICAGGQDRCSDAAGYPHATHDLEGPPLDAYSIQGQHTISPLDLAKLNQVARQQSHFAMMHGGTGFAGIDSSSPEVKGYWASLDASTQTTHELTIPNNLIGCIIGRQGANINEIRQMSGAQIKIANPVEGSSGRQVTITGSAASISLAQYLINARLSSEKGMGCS
# UniProt P52209: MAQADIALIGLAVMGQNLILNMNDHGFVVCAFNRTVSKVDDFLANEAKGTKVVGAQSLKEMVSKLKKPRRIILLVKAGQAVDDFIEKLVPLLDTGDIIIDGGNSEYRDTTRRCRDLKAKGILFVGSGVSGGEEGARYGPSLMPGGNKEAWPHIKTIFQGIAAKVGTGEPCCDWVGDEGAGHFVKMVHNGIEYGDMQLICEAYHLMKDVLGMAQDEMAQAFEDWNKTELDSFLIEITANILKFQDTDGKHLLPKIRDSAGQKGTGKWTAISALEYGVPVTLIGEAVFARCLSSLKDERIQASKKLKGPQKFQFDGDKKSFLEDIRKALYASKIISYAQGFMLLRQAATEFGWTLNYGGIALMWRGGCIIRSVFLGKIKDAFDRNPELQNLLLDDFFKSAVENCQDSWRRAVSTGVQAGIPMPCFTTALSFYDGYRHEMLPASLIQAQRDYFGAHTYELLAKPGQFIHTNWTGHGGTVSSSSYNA
# UniProt Q13393: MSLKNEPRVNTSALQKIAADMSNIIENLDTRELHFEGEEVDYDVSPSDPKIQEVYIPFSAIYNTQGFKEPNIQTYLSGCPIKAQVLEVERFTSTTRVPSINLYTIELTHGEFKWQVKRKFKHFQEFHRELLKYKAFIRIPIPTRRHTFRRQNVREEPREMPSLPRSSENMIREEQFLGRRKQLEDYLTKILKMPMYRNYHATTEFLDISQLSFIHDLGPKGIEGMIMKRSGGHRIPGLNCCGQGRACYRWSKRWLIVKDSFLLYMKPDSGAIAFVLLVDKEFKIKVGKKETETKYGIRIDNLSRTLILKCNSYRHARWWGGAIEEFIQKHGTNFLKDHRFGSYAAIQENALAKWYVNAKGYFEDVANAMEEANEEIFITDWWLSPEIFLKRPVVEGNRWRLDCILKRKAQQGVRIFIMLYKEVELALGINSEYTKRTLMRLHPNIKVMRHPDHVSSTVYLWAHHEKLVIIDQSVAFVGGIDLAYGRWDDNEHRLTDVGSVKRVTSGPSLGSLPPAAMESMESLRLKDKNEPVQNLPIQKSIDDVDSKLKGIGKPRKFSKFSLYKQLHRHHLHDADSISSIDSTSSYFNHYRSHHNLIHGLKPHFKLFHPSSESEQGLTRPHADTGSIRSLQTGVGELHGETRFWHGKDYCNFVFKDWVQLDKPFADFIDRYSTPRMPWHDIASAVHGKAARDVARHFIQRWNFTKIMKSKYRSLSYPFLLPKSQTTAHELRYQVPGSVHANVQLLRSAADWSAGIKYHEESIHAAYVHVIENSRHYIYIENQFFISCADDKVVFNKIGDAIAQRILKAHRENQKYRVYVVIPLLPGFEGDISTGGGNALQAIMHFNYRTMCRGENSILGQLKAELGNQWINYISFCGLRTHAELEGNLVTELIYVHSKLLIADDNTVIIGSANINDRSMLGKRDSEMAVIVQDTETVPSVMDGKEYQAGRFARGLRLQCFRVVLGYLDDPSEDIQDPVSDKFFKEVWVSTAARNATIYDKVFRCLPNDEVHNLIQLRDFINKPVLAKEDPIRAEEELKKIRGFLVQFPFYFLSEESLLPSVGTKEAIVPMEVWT
# UniProt Q99623, whole entry: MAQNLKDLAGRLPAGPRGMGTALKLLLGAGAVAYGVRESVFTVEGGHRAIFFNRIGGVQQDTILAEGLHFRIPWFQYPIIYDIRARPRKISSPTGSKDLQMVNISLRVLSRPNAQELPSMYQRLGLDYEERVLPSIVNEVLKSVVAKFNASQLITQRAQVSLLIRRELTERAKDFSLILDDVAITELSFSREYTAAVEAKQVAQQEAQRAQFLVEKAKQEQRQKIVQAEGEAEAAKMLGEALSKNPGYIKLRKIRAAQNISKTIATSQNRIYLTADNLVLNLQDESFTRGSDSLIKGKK
# The other results are listed elsewhere or left out.
# Compound: COc1ccc(Cn2ccc3cc(C)c(C(=O)NO)cc32)cc1
# Assay: dose-dependent thermal stabilisation call (2D-TPP, DLPTP, 10% FDR) (binary (1 = stabilised)); higher = stabilised by the compound
# Details: system: HL-60 intact cells; concentration range 0.04-10 µM
# Protocol: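 2D thermal proteome profiling in intact HL-60 cells treated with BRD-3811 (0, 0.04, 0.29, 2, 10 uM) for 90 min at 37 C, then heated 3 min at one of 12 temperatures (42-63.9 C). Soluble protein was quantified by TMT10 MS. The value is the DLPTP call of the paper: dose-dependent thermal stabilisation over all temperatures at 10% FDR (F-test of a dose-response against a flat model); one experiment, one call per tested protein.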
row,Target,dose-dependent thermal stabilisation call
1,OSBPL9 (UniProt Q96SU4),inactive: 0
2,PDK1 (UniProt Q15118),inactive: 0
3,OIP5 (UniProt O43482),inactive: 0
4,PDS5A (UniProt Q29RF7),inactive: 0
5,PGM3 (UniProt O95394),inactive: 0
6,PCBP1 (UniProt Q15365),inactive: 0
7,PGD (UniProt P52209),inactive: 0
8,PLD1 (UniProt Q13393),inactive: 0
9,PHB2 (UniProt Q99623),inactive: 0
